Source: paper PMC9263537 (Pharmacology Research & Perspectives, 2022)

Experiments:
[1] = mean population model parameter; cited from earlier work
[2] = bootstrap, for an individual of 75 kg

ω^2 V1/F, Bootstrap mean [95%CI] (bootstrap 1000 replicates): 0.517 [0.218–0.822]
ω^2 V2/F, Bootstrap mean [95%CI] (bootstrap 1000 replicates): 0.110 [0.0655–0.172]
Cl2/F, Bootstrap mean [95%CI] [2]: 890 [668–1122] L/h
Cl/F, Bootstrap mean [95%CI] [2]: 617 [551–691] L/h
V1/F, Bootstrap mean [95%CI] [2]: 1709 [1253–2224] L
V2/F, Bootstrap mean [95%CI] [2]: 4229 [3573–4918] L
Between subject variability ω^2 Cl/f, Estimates (final model): 0.151
Between subject variability ω^2 V1/F, Estimates (final model): 0.625
Between subject variability ω^2 V2/F, Estimates (final model): 0.111
Cl2/F, Estimates (for an individual of 75 kg): 873 L/h
Cl/F, Estimates (for an individual of 75 kg): 620 L/h
V1/F, Estimates (for an individual of 75 kg): 1843 L
V2/F, Estimates (for an individual of 75 kg): 4184 L
mean difference in drug absorption delay (T50) (placebo vs semaglutide co-administration): 67 min
Compound: CC(C)c1c(C(=O)Nc2ccccc2)c(-c2ccccc2)c(-c2ccc(F)cc2)n1CC[C@@H](O)C[C@@H](O)CC(=O)O [atorvastatin]
Cl2/F [1]: 1880 L/h
Cl/F [1]: 504 L/h
V1/F [1]: 3250 L
V2/F [1]: 2170 L
